Experimental data reported in patent US8236762B2 (IPSEN Pharma S.A.S., priority 2006, dated 2012).

Experiment: general procedure: Fmoc solid-phase peptide synthesis; Rink Amide MBHA resin, 0.72 mmol/g; HBTU/HOBT/DIEA; HATU/HOAT/DIEA for Aepa; DIC/HOBT for Doc; DIC/HOAt/DIEA for cyt
Details: whole synthesis; for final HPLC purity: scale of the general procedure 1 mmol

Substance	final HPLC purity [%]	further results
Camptothecin-rvD-Asp-Suc-(Doc)4-Aepa-D-Phe-c(Cys-Tyr-D-Trp-Lys-Abu-Cys)-Thr-NH2		isolated yield (scale 0.8 mmol): 13.9%
Camptothecin-rvD-Dap(Z)-Suc-(Doc)4-Aepa-D-Phe-c(Cys-Tyr-D-Trp-Lys-Abu-Cys)-Thr-NH2	99	
Camptothecin-rvD-Glu-Suc-(Doc)4-Aepa-D-Phe-c(Cys-Tyr-D-Trp-Lys-Abu-Cys)-Thr-NH2 and Camptothecin-rvGlu-Suc-(Doc)4-Aepa-D-Phe-c(Cys-Tyr-D-Trp-Lys-Abu-Cys)-Thr-NH2	94.2	
Camptothecin-rvD-Val-Suc-(Doc)4-Aepa-D-Phe-c(Cys-Tyr-D-Trp-Lys-Abu-Cys)-Thr-NH2	99.9	
Camptothecin-rvDAsp-Suc-(Peg3)3-Aepa-DPhe-c(Cys-Tyr-DTrp-Lys-Abu-Cys)-Thr-NH2	99.9	
Camptothecin-rvDAsp-Suc-Peg11-Aepa-DPhe-c(Cys-Tyr-DTrp-Lys-Abu-Cys)-Thr-NH2	99.9	
PEPTIDE1{[CPT-Glut].[Doc].[Doc].[Doc].[Doc].[Aepa].[dF].C.Y.[dW].K.[Abu].C.T.[am]}$PEPTIDE1,PEPTIDE1,8:R3-13:R3$$$V2.0	96.8	
PEPTIDE1{[CPT-rvAbu-Suc].[Doc].[Doc].[Doc].[Doc].[Aepa].[dF].C.Y.[dW].K.[Abu].C.T.[am]}$PEPTIDE1,PEPTIDE1,8:R3-13:R3$$$V2.0	99	
PEPTIDE1{[CPT-rvAhp-Suc].[Doc].[Doc].[Doc].[Doc].[Aepa].[dF].C.Y.[dW].K.[Abu].C.T.[am]}$PEPTIDE1,PEPTIDE1,8:R3-13:R3$$$V2.0	99	
PEPTIDE1{[CPT-rvAla-Suc].[Doc].[Doc].[Doc].[Doc].[Aepa].[dF].C.Y.[dW].K.[Abu].C.T.[am]}$PEPTIDE1,PEPTIDE1,8:R3-13:R3$$$V2.0	99.9	
PEPTIDE1{[CPT-rvAnc-Suc].[Doc].[Doc].[Doc].[Doc].[Aepa].[dF].C.Y.[dW].K.[Abu].C.T.[am]}$PEPTIDE1,PEPTIDE1,8:R3-13:R3$$$V2.0	99	
PEPTIDE1{[CPT-rvApn-Suc].[Doc].[Doc].[Doc].[Doc].[Aepa].[dF].C.Y.[dW].K.[Abu].C.T.[am]}$PEPTIDE1,PEPTIDE1,8:R3-13:R3$$$V2.0	99	
PEPTIDE1{[CPT-rvArg-Suc].[Doc].[Doc].[Doc].[Doc].[Aepa].[dF].C.Y.[dW].K.[Abu].C.T.[am]}$PEPTIDE1,PEPTIDE1,8:R3-13:R3$$$V2.0	92.3	
PEPTIDE1{[CPT-rvCha-Suc].[Doc].[Doc].[Doc].[Doc].[Aepa].[dF].C.Y.[dW].K.[Abu].C.T.[am]}$PEPTIDE1,PEPTIDE1,8:R3-13:R3$$$V2.0	99	isolated yield (scale 0.6 mmol): 99.9%
PEPTIDE1{[CPT-rvD-Glu-Suc].[Doc].[Doc].[Doc].[Doc].[Aepa].[dF].C.Y.[dW].K.[Abu].C.T.[am]}$PEPTIDE1,PEPTIDE1,8:R3-13:R3$$$V2.0	100	
PEPTIDE1{[CPT-rvDap(Z)-Suc].[Doc].[Doc].[Doc].[Doc].[Aepa].[dF].C.Y.[dW].K.[Abu].C.T.[am]}$PEPTIDE1,PEPTIDE1,8:R3-13:R3$$$V2.0	99	

Substance	final HPLC purity [%]	further results
PEPTIDE1{[CPT-rvGly-Glut].[Doc].[Doc].[Doc].[Doc].K.[dY].[dY].C.F.F.[dW].K.T.C.[am]}$PEPTIDE1,PEPTIDE1,9:R3-15:R3$$$V2.0	99	
PEPTIDE1{[CPT-rvGly-Glut].[Doc].[Doc].[Doc].[Doc].K.[dY].[dY].C.[3-(I)Tyr].[dW].K.[Abu].C.T.[am]}$PEPTIDE1,PEPTIDE1,9:R3-14:R3$$$V2.0	99	
PEPTIDE1{[CPT-rvGly-Glut].[Doc].[Doc].[Doc].[Doc].[Doc].[Doc].K.[dY].[dY].C.[3-(I)Tyr].[dW].K.[Abu].C.T.[am]}$PEPTIDE1,PEPTIDE1,11:R3-16:R3$$$V2.0	99	
PEPTIDE1{[CPT-rvGly-Suc].[Doc].[Doc].[Doc].[Doc].K.[dS].[dY].Q.W.A.V.[bAla].H.L.[Nle].[am]}$$$$V2.0	99.9	
PEPTIDE1{[CPT-rvGly-Suc].[Doc].[Doc].[Doc].[Doc].R.[dA].[dY].Q.W.A.V.[bAla].H.L.[Nle].[am]}$$$$V2.0	97.6	
PEPTIDE1{[CPT-rvGly-Suc].[Doc].[Doc].[Doc].[Doc].[Aepa].L.[Gaba].Q.W.A.V.[bAla].H.L.[Nle].[am]}$$$$V2.0	99	
PEPTIDE1{[CPT-rvGly-Suc].[Doc].[Doc].[Doc].[Doc].[Aepa].[Ahx].Q.W.A.V.[bAla].H.L.[Nle].[am]}$$$$V2.0	99	
PEPTIDE1{[CPT-rvGly-Suc].[Doc].[Doc].[Doc].[Doc].[Aepa].[Apn].N.Q.W.A.V.[bAla].H.L.[Nle].[am]}$$$$V2.0	99	
PEPTIDE1{[CPT-rvGly-Suc].[Doc].[Doc].[Doc].[Doc].[Aepa].[Gaba].N.Q.W.A.V.[bAla].H.L.[Nle].[am]}$$$$V2.0	99	
PEPTIDE1{[CPT-rvGly-Suc].[Doc].[Doc].[Doc].[Doc].[Aepa].[Gaba].[dS].[dY].Q.W.A.V.[bAla].H.L.[Nle].[am]}$$$$V2.0	99.9	
PEPTIDE1{[CPT-rvGly-Suc].[Doc].[Doc].[Doc].[Doc].[Aepa].[Nle].Q.W.A.V.[bAla].H.L.[Nle].[am]}$$$$V2.0	99	
PEPTIDE1{[CPT-rvGly-Suc].[Doc].[Doc].[Doc].[Doc].[Aepa].[dS].[dY].Q.W.A.V.[bAla].H.L.[Nle].[am]}$$$$V2.0	99.9	
PEPTIDE1{[CPT-rvPhe-Suc].[Doc].[Doc].[Doc].[Doc].[Aepa].[dF].C.Y.[dW].K.[Abu].C.T.[am]}$PEPTIDE1,PEPTIDE1,8:R3-13:R3$$$V2.0	99	
PEPTIDE1{[CPT-rvVal-Suc].[Doc].[Doc].[Doc].[Doc].[Aepa].[dF].C.Y.[dW].K.[Abu].C.T.[am]}$PEPTIDE1,PEPTIDE1,8:R3-13:R3$$$V2.0	99	
PEPTIDE1{[SN38-rvGly-Suc].[Doc].[Doc].[Doc].[Doc].[Aepa].[dF].C.Y.[dW].K.[Abu].C.T.[am]}$PEPTIDE1,PEPTIDE1,8:R3-13:R3$$$V2.0	98.6	

HELM strings list residues between dots; [ac] is acetyl, [am] amide, other brackets name non-standard units.
